Data reported in paper PMC6726739.

Molecular target: AvrPto in pGBKT-7 (Pseudomonas syringae pv. tomato DC3000)
Experiment: two-hybrid; Matchmaker GAL4 Two-Hybrid System 3, yeast AH109; effectors and AvrPtoB forms in pGBKT-7 (BD), plant proteins in pGADT-7 (AD); growth on SD-Trp/-Leu/-His/-Ade, 5 days

B1: EXO70B1, full length, fused to the Gal4 transactivation domain (protein, UniProt Q9FGH9 1-624)
chain: MAENGEEKLLAVARHIAKTLGHNESMADDILQIFSNFDGRFSREKLAEGQAGEDGSGVATLERALNSIDGQISRFVAADQPIWADPADSAAFLDTIDELVAIIREWSPMASEKPIGICLTRADDMMQQAMFRIEEEFRSLMERGAESFGLNPQGDAGAMNHRFDSEEEEDDDRDFNNGDDIQIPVAQPLTDYDLIIDALPSATINDLHEMAKRMLGAGFGKACSHVYSSCRREFLEESMSRLGLQKLSIEEVHKMPWQELEDEIDRWIKAANVALRILFPSERRLCDRVFFGFSSAADLSFMEVCRGSTIQLLNFADAIAIGSRSPERLFKVLDVFETMRDLMPEFESVFSDQFCSVLRNEAVTIWKRLGEAIRGIFMELENLIRRDPAKAAVPGGGLHPITRYVMNYLRAACRSRQTLEQVFEESNGVPSKDSTLLTVQMSWIMELLESNLEVKSKVYKDPALCYVFLMNNGRYIVQKVKDGDLGLLLGDDWIRKHNVKVKQYHMNYQRSSWNKMLGLLKVDNTAAGMNGLGKTMKEKLKQFNIQFDEICKVHSTWVVFDEQLKEELKISLARLLVPAYGSFIGRFQNLGDIGKNADKYIKYGVEDIEARINELFKGTTTGRK
binding: binds

No constants are given. Whether binding was seen depends on the method and setting. A result given as binding can be weak or reduced; the word gives no strength. Where a sequence is shown, tags or fusion partners need not be part of it.
